Results published in PubChem BioAssay AID2685 (National Center for Advancing Translational Sciences (NCATS), 2010).
Some of the results follow. Further columns of the screen follow, without active or inactive calls. Most of these compounds were active or inconclusive in the main read-out, so they are no random draw. Potencies come from curve fits of mixed quality, noted in brackets.

Test: qHTS Assay for Lipid Storage Modulators in Drosophila S3 Cells;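 for cell number change: cells counted by Cell Tracker Red CMTPX staining in the red channel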
Settings: BODIPY lipid droplet fluorescence, 18-24 h; for cell number change: measured here: cell count max response, cells fed with added oleic acid
How it was run: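 Drosophila S3 cells got compounds at several concentrations plus oleic acid (400 uM solution). Laser-scanning cytometry with 488 nm excitation read lipid droplets at 500-530 nm and cells at 575-640 nm. Percent activity was relative to 20 uM Triacsin C.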

[1] = measured here: cell number channel AC50, cells fed with added oleic acid
[2] = measured here: lipid fluorescence (Fed channel) AC50, cells fed with added oleic acid

Compound | cell number change | AC50 [1] | AC50 [2]
CC(C)NC(=O)[C@H]1N2C(=O)c3ccccc3C2SC1(C)C (stereo not given in full) | 30.8% | 29.1 µM [rising, partial curve, poor fit] | 29.1 µM [rising, partial curve, poor fit]
Cc1ccccc1OCC(=O)N/N=C/c1ccc(N(C)C)cc1 | 34.6% | – | –
CC(C)NC(=O)NC(=O)COC(=O)C1CCCN1C(=O)c1cccs1 (stereo not given) | -0.666% | – | 1.3 µM [falling, full curve, poor fit]
CCOC(=O)c1c(C)[nH]c(C(=O)COC(=O)c2ccncc2)c1C | – | 6.51 µM [falling, single point] | –
CCOC(=O)c1sc2ccccc2c1NC(=O)c1coc2ccccc2c1=O | -33.9% | 20.6 µM [falling, single point] | 20.6 µM [falling, single point]
Cc1ccc(S(=O)(=O)NCCC(=O)NCCSc2ccc(Br)cc2)cc1 | 32.3% | 5.8 µM [rising, full curve, poor fit] | 8.2 µM [rising, partial curve]
O=C(c1ccccc1)c1cc2ccccc2o1 | -1.1% | – | –
O=C(NCC(c1ccco1)N1CCc2ccccc2C1)c1ccc(Cl)c([N+](=O)[O-])c1 (stereo not given) | – | – | 6.51 µM [falling, single point]
COc1ccc(NS(=O)(=O)c2cc(NC(=O)CC(C)(C)C)ccc2N2CCCC2)cc1 | -12.7% | – | 0.164 µM [rising, partial curve, poor fit]
NS(=O)(=O)c1ccc(CCNC(=O)COC(=O)CN2C(=O)C3CCCCC3C2=O)cc1 (stereo not given) | -36.8% | – | 29.1 µM [falling, partial curve, poor fit]
O=C1c2ccccc2C(O)N1Cc1ccco1 (stereo not given) | 8.82% | – | 2.91 µM [falling, full curve]
CC(=O)Nc1ccc(NC(=O)C/C(C)=N/NC(=O)C(=O)Nc2ccc(C)c(Cl)c2)cc1 | 19.9% | – | –
Cc1ccn2c(-c3csc(NCc4ccco4)n3)c(C)nc2c1 | -26.2% | – | –
COc1ccc2c(CC(=O)N3CCc4ccccc43)coc2c1 | 80.2% | 2.59 µM [rising, partial curve] | 7.31 µM [rising, partial curve]
Cn1cc(SCC(=O)Nc2ccc3c(c2)OCO3)c2ccccc21 | -15.8% | – | –
Cc1nc(N)sc1C(=O)OCC(C)C | 104% | 0.82 µM [rising, full curve] | 0.82 µM [rising, full curve]
O=C1c2ccccc2-c2c1cccc2C(=O)N1CCCCCC1 | -1.26% | – | 20.6 µM [falling, partial curve, poor fit]
Cc1cc(C)c(NC(=O)c2cccc(NC(=O)c3ccco3)c2)c(C)c1 | -73% | 6.51 µM [falling, partial curve] | 23.1 µM [falling, single point]
N/C(=N\OC(=O)CC1CCCCC1)c1ccccc1 | -5.8% | – | 1.84 µM [falling, partial curve, poor fit]
CCOc1cc(CNc2ncc(-c3ccc(OC)cc3)n2C)ccc1O | 16.6% | – | –

Entries from the list above with a carbonyl joined to an NH by a bond outside any ring, in the order listed:
Compound | cell number change | AC50 [1] | AC50 [2]
CC(C)NC(=O)[C@H]1N2C(=O)c3ccccc3C2SC1(C)C (stereo not given in full) | 30.8% | 29.1 µM [rising, partial curve, poor fit] | 29.1 µM [rising, partial curve, poor fit]
Cc1ccccc1OCC(=O)N/N=C/c1ccc(N(C)C)cc1 | 34.6% | – | –
CC(C)NC(=O)NC(=O)COC(=O)C1CCCN1C(=O)c1cccs1 (stereo not given) | -0.666% | – | 1.3 µM [falling, full curve, poor fit]
CCOC(=O)c1sc2ccccc2c1NC(=O)c1coc2ccccc2c1=O | -33.9% | 20.6 µM [falling, single point] | 20.6 µM [falling, single point]
Cc1ccc(S(=O)(=O)NCCC(=O)NCCSc2ccc(Br)cc2)cc1 | 32.3% | 5.8 µM [rising, full curve, poor fit] | 8.2 µM [rising, partial curve]
O=C(NCC(c1ccco1)N1CCc2ccccc2C1)c1ccc(Cl)c([N+](=O)[O-])c1 (stereo not given) | – | – | 6.51 µM [falling, single point]
COc1ccc(NS(=O)(=O)c2cc(NC(=O)CC(C)(C)C)ccc2N2CCCC2)cc1 | -12.7% | – | 0.164 µM [rising, partial curve, poor fit]
NS(=O)(=O)c1ccc(CCNC(=O)COC(=O)CN2C(=O)C3CCCCC3C2=O)cc1 (stereo not given) | -36.8% | – | 29.1 µM [falling, partial curve, poor fit]
CC(=O)Nc1ccc(NC(=O)C/C(C)=N/NC(=O)C(=O)Nc2ccc(C)c(Cl)c2)cc1 | 19.9% | – | –
Cn1cc(SCC(=O)Nc2ccc3c(c2)OCO3)c2ccccc21 | -15.8% | – | –
Cc1cc(C)c(NC(=O)c2cccc(NC(=O)c3ccco3)c2)c(C)c1 | -73% | 6.51 µM [falling, partial curve] | 23.1 µM [falling, single point]

(cont.)

Compound | cell number change | AC50 [1] | AC50 [2]
COc1ccc(N2CCN(C(CNC(=O)C(=O)NCc3ccc4c(c3)OCO4)c3ccco3)CC2)cc1 (stereo not given) | 33% | 16.4 µM [rising, single point] | 0.517 µM [rising, full curve, poor fit]
CCCC(C(=O)NCCC(C)C)N(Cc1ccccc1)C(=O)c1snc(C(N)=O)c1N (stereo not given) | – | – | 9.2 µM [falling, single point]
Cc1cc(C)n(CC(=O)N2CCCC(N3CCN(c4cccc(C(F)(F)F)c4)CC3)C2)n1 (stereo not given) | 29.9% | – | –
COc1ccc(N(CC(=O)Nc2ccccc2OC)S(=O)(=O)c2ccccc2)cc1Cl | -17.9% | – | 25.9 µM [falling, single point]
O=C1ON=C(c2cccc([N+](=O)[O-])c2)/C1=C/c1ccc(O)cc1 | -25.5% | – | 0.731 µM [falling, single point]
CCOc1ccccc1C(=O)OCC(=O)NCCNC(=O)COC(=O)c1ccccc1OCC | 22.7% | – | 29.1 µM [falling, single point]
Cc1ccc(C)c(S(=O)(=O)N2CCN(C(=O)c3ccc(OCc4c(C)noc4C)cc3)CC2)c1 | -42.3% | 20.6 µM [falling, partial curve] | 7.31 µM [falling, partial curve, poor fit]
COc1ccccc1-n1ccnc1SCC(=O)NCC1CCCO1 (stereo not given) | 37.3% | 13 µM [rising, partial curve, poor fit] | –
O=C(O)c1cccc(Nc2cc(Cl)c3nonc3c2[N+](=O)[O-])c1 | 26.6% | – | –
COC(=O)c1cc(OC)nc2c1c(=O)n(C)c(=O)n2C | -23.1% | – | 0.58 µM [falling, full curve, poor fit]
COc1ccc(N2CCN(CC(=O)Nc3cc(C)cc(C)c3)CC2)cc1 | 2.35% | – | 18.4 µM [falling, single point]
COc1cccc(CNc2ccc([N+](=O)[O-])c(NCC(=O)O)n2)c1 | 121% | 25.9 µM [rising, single point] | 29.1 µM [rising, single point]
Cc1ccc(C(=O)CC2C(=O)N(c3ccccc3)C(=S)N2c2ccccc2)cc1 (stereo not given) | 6.31% | – | 29.1 µM [falling, single point]
NNC(=O)/C(=C\c1ccco1)NC(=O)c1ccco1 | – | 0.116 µM [falling, full curve] | –
CC(=O)Nc1cccc(NC(=O)CSc2nnnn2-c2ccc3c(c2)OCO3)c1 | 14.7% | – | 5.8 µM [rising, single point]
COC(=O)c1c(C)oc2ccc(N(C(=O)c3ccncc3)S(=O)(=O)c3ccc4ccccc4c3)cc12 | -26% | – | –
COc1cc([N+](=O)[O-])ccc1NC(=O)CCN1C(=O)C2C3CCC(C3)C2C1=O (stereo not given) | 8.36% | – | 29.1 µM [rising, single point]
Cc1ccccc1NC(=O)CN(C)S(=O)(=O)c1cccs1 | 5.86% | – | 29.1 µM [rising, single point]
Cc1ccc(OCCCCN(C)Cc2ccccc2)c(Br)c1 | -27.8% | – | 0.231 µM [falling, full curve, poor fit]
c1ccc(-c2cc3c(-n4cccc4)ncnc3o2)cc1 | -39.1% | 10.3 µM [falling, partial curve] | 16.4 µM [falling, partial curve, poor fit]

Compound | cell number change | AC50 [1] | AC50 [2]
COC(=O)C1=C(O)CSC1=Nc1ccc(C)cc1 | – | – | 16.4 µM [rising, partial curve]
Fc1ccccc1NC(=S)NN(Cc1ccccc1)c1ccccc1 | 46.6% | 8.2 µM [rising, partial curve, poor fit] | 7.31 µM [falling, single point]
Cc1csc2ncnc(N3CCN(C(=S)Nc4ccc(C(F)(F)F)cc4)CC3)c12 | 13.1% | 1.3 µM [rising, partial curve, poor fit] | 4.61 µM [rising, partial curve, poor fit]
Fc1ccc(Cn2cnc3ccccc32)cc1 | – | – | 0.326 µM [falling, single point]
CCN(CC)S(=O)(=O)c1ccc2c(c1)c(=O)c(C(=O)N1CCc3ccccc3C1)cn2C | -24.3% | – | 7.31 µM [rising, partial curve]
N=c1cc(C2(O)CCCCC2)n2c(nc3ccccc32)s1 | 3.06% | – | 0.731 µM [falling, single point]
O=C1CCC(=O)N1CNc1cccnc1 | -14.6% | – | 0.231 µM [falling, full curve, poor fit]
CCc1nnc(SCC(=O)Nc2ccccc2)nc1CC | 26.6% | 0.731 µM [rising, full curve, poor fit] | 2.06 µM [rising, full curve, poor fit]
Cc1ccn(-c2ccc(NC(=O)c3cccs3)cc2)n1 | -21.1% | – | –
CCOc1ccc(N2CC(NS(=O)(=O)c3cccnc3)CC2=O)cc1 (stereo not given) | 58.1% | 9.2 µM [rising, partial curve] | 1.64 µM [rising, partial curve]
Cc1ccc(NC(=O)c2cncc(Br)c2)c(O)c1 | -36.9% | 18.4 µM [falling, partial curve] | –
O=C(N/N=C/c1cc2c(cc1Br)OCO2)C1COc2ccccc2O1 (stereo not given) | 33.5% | 0.58 µM [rising, full curve] | 0.92 µM [rising, full curve]
COc1ccc(NC(=O)CSc2nnc(-c3ccncc3)o2)c([N+](=O)[O-])c1 | 8.84% | – | 0.092 µM [rising, full curve, poor fit]
CC(NC(=O)c1ccc(CS(C)(=O)=O)cc1)c1cccc2ccccc12 (stereo not given) | -6.67% | – | 29.1 µM [rising, single point]
Cc1ccc(Cc2cnc(NC(=O)C3CCCO3)s2)cc1 (stereo not given) | – | – | 4.61 µM [falling, single point]
CCOc1ccc(CNC(=O)CCn2c(=O)oc3ccccc32)cc1OC | 3% | – | 20.6 µM [rising, single point]
CCCOc1c(Br)cc(C2C3=C(CCCC3=O)N(C)C3=C2C(=O)CCC3)cc1OC | 42.7% | 8.2 µM [rising, partial curve, poor fit] | 14.6 µM [rising, partial curve]
O=C(NCCCNC(=O)c1cncc(O)c1)c1cncc(O)c1 | -24% | – | 1.03 µM [falling, full curve]
